The values below come from patent US20030198640A1.

Chains of the proteins cited; added tags and fusions are not shown. Lines headed by an entry give the natural chain unless they say otherwise; changes in a name come on top. Residues count along the entry.
UniProt P25445, residues 191-335: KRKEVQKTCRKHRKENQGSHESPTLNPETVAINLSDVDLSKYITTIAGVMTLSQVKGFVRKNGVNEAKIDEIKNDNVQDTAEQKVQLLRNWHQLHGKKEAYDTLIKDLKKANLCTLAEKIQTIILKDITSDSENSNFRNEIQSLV
UniProt O95150: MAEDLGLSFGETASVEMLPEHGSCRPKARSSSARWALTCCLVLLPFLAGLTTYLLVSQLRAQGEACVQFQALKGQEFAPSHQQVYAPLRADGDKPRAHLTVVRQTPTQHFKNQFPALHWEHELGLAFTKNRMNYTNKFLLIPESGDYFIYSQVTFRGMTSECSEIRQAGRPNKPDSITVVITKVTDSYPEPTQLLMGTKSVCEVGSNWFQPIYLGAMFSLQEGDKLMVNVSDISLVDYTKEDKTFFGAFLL
UniProt Q13158: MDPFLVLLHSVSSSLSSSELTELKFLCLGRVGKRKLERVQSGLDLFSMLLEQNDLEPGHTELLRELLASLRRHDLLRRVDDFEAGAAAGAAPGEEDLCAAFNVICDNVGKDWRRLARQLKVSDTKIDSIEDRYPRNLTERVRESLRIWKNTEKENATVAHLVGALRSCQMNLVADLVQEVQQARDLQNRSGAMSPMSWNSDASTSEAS

These are yes or no findings as the source states them, for the method shown. For some assays here: Binding seen in cells or lysates may run through a third protein. Some binding calls cover weakened binding; strength is not graded here.

In assay [1] the target is T1, death domain truncated DR3 (DR3ΔDD, aa 1-345), on transfected cells (human) (UniProt Q93038).
T1 sequence: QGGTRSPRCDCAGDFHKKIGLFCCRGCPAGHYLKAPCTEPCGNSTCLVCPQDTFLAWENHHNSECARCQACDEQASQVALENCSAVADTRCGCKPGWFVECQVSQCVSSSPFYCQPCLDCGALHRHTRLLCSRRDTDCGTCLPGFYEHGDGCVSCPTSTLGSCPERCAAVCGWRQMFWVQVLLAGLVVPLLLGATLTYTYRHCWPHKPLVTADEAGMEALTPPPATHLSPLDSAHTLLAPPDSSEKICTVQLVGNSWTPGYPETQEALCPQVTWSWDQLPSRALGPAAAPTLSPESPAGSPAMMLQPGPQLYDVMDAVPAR
Nature of the assay: flow cytometry on transiently transfected cells. (A flow cytometer gives signals particle by particle.)

Assay [2] has as its target GST fusion of the cytoplasmic domain of Fas (UniProt P25445). The assay can be described thus: GST pull-down of in vitro translated 35S-labelled protein.

“FLAG-tagged soluble form of TNF-gamma-beta (aa 72-251) (from UniProt O95150 72-251) (ligand)”: in assay [1], the binding entry is reported as “binds”.

As for “FADD (AU1-FADD) (from UniProt Q13158 1-208)”, the binding entry in assay [2] is “binds”.
